Some entries share one result that the patent states for a list of compounds.
Test system: A375 cells
Assay: MTS growth assay of A375 cells expressing DOX-inducible ERK1/2 alleles in the presence of MAPK pathway inhibitors
Type: cell-based
Conditions: 10 of 17 ERK1/2 alleles confirmed resistant, trametinib 3 nM, dabrafenib 50 nM, combination 1 nM+10 nM
Excerpt: To verify their resistance effects, we engineered the relevant mutations for highly mutated alleles or for low frequency alleles that were analogous between ERK1 and ERK2 within the coding sequence of ERK1 or ERK2 by site directed mutagenesis in the doxycycline-inducible vector. […] Here, we defined validation as a >4-fold increase in cell growth conferred by DOX-induced mutant ERK expression compared to control cells cultured without DOX (FIG. 2A, Table 4, FIG. 8G).
A375, WM266.4, or SKmel19 cells were plated in 96-well plates, with six replicates for each drug. Drugs were added the next day with or without DOX. Cell growth was analyzed 72-96 hours later by MTS assay (Promega). The inhibitor concentrations were the same as the screen. […] Growth was normalized to DMSO, NO-DOX controls, and graphed as percent growth. Heatmaps were created from growth assays using GENE-E (Available on the World Wide Web at broadinstitute.org/cancer/software/GENE-E/download.html). For some growth assays, a half-log dose response curve was generated to determine sensitivity. The concentration of DMSO was 0.1%.

| Structure (SMILES) | growth advantage in the presence of the inhibitor compared to controls [fold] |
| --- | --- |
| CC(=O)Nc1cccc(-n2c(=O)n(C3CC3)c(=O)c3c(Nc4ccc(I)cc4F)n(C)c(=O)c(C)c32)c1 [trametinib] | > 2.5 |
| CC(C)(C)c1nc(-c2cccc(NS(=O)(=O)c3c(F)cccc3F)c2F)c(-c2ccnc(N)n2)s1 [dabrafenib] | > 2.5 |

Reference: patent US11186874B2, “ERK1 and ERK2 mutations that confer resistance to MAPK pathway inhibitors” (Dana-Farber Cancer Institute, Inc., priority 2014, dated 2021)
